{"source": "PubChem BioAssay AID330", "about": "(DTP/NCI, 2004)", "tested_on": "P388 leukemia ip, CD2F1 mice, survival T/C", "assay": "NCI In Vivo Anticancer Drug Screen. Data for tumor model P388 Leukemia (intraperitoneal) in CD2F1 (CDF1) mice", "details": "T/C endpoint: median survival time, higher T/C = longer survival", "key": {"[1]": {"details": "dose: 120.0 mg/kg/injection, schedule: Q01DX005 (ip), vehicle: saline with Tween-80"}, "[2]": {"details": "dose: 240.0 mg/kg/injection, schedule: Q01DX005 (ip), vehicle: saline with Tween-80"}, "[3]": {"details": "dose: 100.0 mg/kg/injection, schedule: Q01DX009 (ip), vehicle: saline with Tween-80"}, "[4]": {"details": "dose: 50.0 mg/kg/injection, schedule: Q01DX005 (ip), vehicle: Klucel (hydroxypropylcellulose) (HPC)"}, "[5]": {"details": "dose: 100.0 mg/kg/injection, schedule: Q01DX005 (ip), vehicle: Klucel (hydroxypropylcellulose) (HPC)"}, "[6]": {"details": "dose: 200.0 mg/kg/injection, schedule: Q01DX005 (ip), vehicle: Klucel (hydroxypropylcellulose) (HPC)"}}, "note": "The list does not hold the whole screen: it is rich in T/C values a quarter to a half above the control, in often repeated tests (any T/C) and in doses without a T/C. Other doses and runs of a compound stand elsewhere. T/C gives the treated animals as a percentage of the vehicle group. Some doses have a count of surviving animals in place of a T/C: the source files T/C as zero there, which appears to mark a toxic dose or a test without result, not a measured value. Some survivor counts are full or nearly so, which does not show that the dose was tolerated: the source hardly ever lists a survival T/C far under the control, and the zero likely stands for such cases as well. Counts of survivors are from the toxicity check (mostly the fifth day) where no day follows; animals may have died later. Schedule codes are those of the source, taken here to give the interval after Q, in days (D) or hours (H), and the number of doses after X. Where survival is the endpoint, the PubChem record calls one and a half times the control and up active, and a quarter to a half above the control has no call in these data; cut-offs in other NCI protocols can differ.", "data": [{"smiles": "c1ccc2c(NCCCCCNc3c4ccccc4nc4ccccc34)c3ccccc3nc2c1", "values": [{"measurement": "T/C", "setting": "dose: 7.5 mg/kg/injection, schedule: Q01DX009 (ip), vehicle: other", "value": "126 % of control"}, {"measurement": "survivor count", "setting": "dose: 15.0 mg/kg/injection, schedule: Q01DX009 (ip), vehicle: other", "value": "3 of 6"}, {"measurement": "survivor count", "setting": "dose: 20.0 mg/kg/injection, schedule: Q01DX009 (ip), vehicle: other", "value": "1 of 6"}]}, {"smiles": "Cn1cnc([N+](=O)[O-])c1Sc1ncnc2nc[nH]c12", "values": [{"measurement": "T/C", "setting": "dose: 360.0 mg/kg/injection, schedule: Q01DX001 (ip), vehicle: saline with Tween-80", "value": "136 % of control"}]}, {"smiles": "C[Si](CNCCN)(c1ccccc1)c1ccccc1", "values": [{"measurement": "survivor count", "setting": "[1]", "value": "0 of 6"}, {"measurement": "survivor count", "setting": "[2]", "value": "0 of 6"}]}, {"smiles": "CC(C)NC1(N(C)C)N=C(N(C)C)N=C(N(C)C)O1", "note": "(stereo not given)", "values": [{"measurement": "survivor count", "setting": "dose: 200.0 mg/kg/injection, schedule: Q01DX005 (ip), vehicle: saline", "value": "0 of 6"}]}, {"smiles": "COc1ccc2[se]c(C(=O)O)cc2c1", "values": [{"measurement": "survivor count", "setting": "dose: 200.0 mg/kg/injection, schedule: Q01DX009 (ip), vehicle: saline", "value": "6 of 6"}]}, {"smiles": "CC(O)CCOC(C[N+](=O)[O-])C(Cl)(Cl)Cl", "note": "(stereo not given)", "values": [{"measurement": "survivor count", "setting": "[3]", "value": "6 of 6"}]}, {"smiles": "COc1cc2cc(-c3ccccn3)nc(N)c2cc1OC", "values": [{"measurement": "survivor count", "setting": "[2]", "value": "3 of 6"}]}, {"smiles": "COc1ccc(SC(N(C)C)=[N+](C)C)cc1", "values": [{"measurement": "survivor count", "setting": "dose: 120.0 mg/kg/injection, schedule: Q01DX005 (ip), vehicle: saline", "value": "0 of 6"}, {"measurement": "survivor count", "setting": "dose: 240.0 mg/kg/injection, schedule: Q01DX005 (ip), vehicle: saline", "value": "0 of 6"}]}, {"smiles": "O=C(NN(Cn1c(=S)sc2ccccc21)Cn1c(=S)sc2ccccc21)c1ccncc1", "values": [{"measurement": "survivor count", "setting": "dose: 25.0 mg/kg/injection, schedule: Q01DX009 (ip), vehicle: Klucel (hydroxypropylcellulose) (HPC)", "value": "6 of 6"}, {"measurement": "survivor count", "setting": "dose: 50.0 mg/kg/injection, schedule: Q01DX009 (ip), vehicle: Klucel (hydroxypropylcellulose) (HPC)", "value": "6 of 6"}, {"measurement": "survivor count", "setting": "dose: 100.0 mg/kg/injection, schedule: Q01DX009 (ip), vehicle: Klucel (hydroxypropylcellulose) (HPC)", "value": "6 of 6"}, {"measurement": "survivor count", "setting": "dose: 200.0 mg/kg/injection, schedule: Q01DX009 (ip), vehicle: Klucel (hydroxypropylcellulose) (HPC)", "value": "5 of 6"}]}, {"smiles": "CCCCCCCCCCCCCC(=O)Oc1ccc[nH]c1=O", "values": [{"measurement": "survivor count", "setting": "dose: 50.0 mg/kg/injection, schedule: Q01DX005 (ip), vehicle: saline with Tween-80", "value": "6 of 6"}, {"measurement": "survivor count", "setting": "dose: 100.0 mg/kg/injection, schedule: Q01DX005 (ip), vehicle: saline with Tween-80", "value": "6 of 6"}, {"measurement": "survivor count", "setting": "dose: 200.0 mg/kg/injection, schedule: Q01DX005 (ip), vehicle: saline with Tween-80", "value": "6 of 6"}, {"measurement": "survivor count", "setting": "dose: 400.0 mg/kg/injection, schedule: Q01DX005 (ip), vehicle: saline with Tween-80", "value": "6 of 6"}]}, {"smiles": "CN(C)CCSSCCN(C)C.[Cl][Zn][Cl]", "values": [{"measurement": "survivor count", "setting": "[4]", "value": "3 of 6"}, {"measurement": "survivor count", "setting": "[5]", "value": "0 of 6"}, {"measurement": "survivor count", "setting": "[6]", "value": "0 of 6"}]}, {"smiles": "O=S(=O)(O)SCCNCCCCC1CCCCC1", "values": [{"measurement": "survivor count", "setting": "dose: 60.0 mg/kg/injection, schedule: Q01DX005 (ip), vehicle: saline with Tween-80", "value": "3 of 6"}, {"measurement": "survivor count", "setting": "[1]", "value": "0 of 6"}, {"measurement": "survivor count", "setting": "[2]", "value": "0 of 6"}]}, {"smiles": "Nc1cn(C2OC(CO)C(O)C2O)c(=O)[nH]c1=O", "note": "(stereo not given)", "values": [{"measurement": "survivor count", "setting": "[3]", "value": "6 of 6"}, {"measurement": "survivor count", "setting": "dose: 200.0 mg/kg/injection, schedule: Q01DX009 (ip), vehicle: saline with Tween-80", "value": "6 of 6"}]}, {"smiles": "CC(C)=NNC(=O)C1CCN1Cc1ccccc1", "note": "(stereo not given)", "values": [{"measurement": "T/C", "setting": "dose: 100.0 mg/kg/injection, schedule: Q01DX001 (ip), vehicle: saline with Tween-80", "value": "126 % of control"}, {"measurement": "T/C", "setting": "dose: 200.0 mg/kg/injection, schedule: Q01DX001 (ip), vehicle: saline with Tween-80", "value": "128 % of control"}, {"measurement": "survivor count", "setting": "dose: 400.0 mg/kg/injection, schedule: Q01DX001 (ip), vehicle: saline with Tween-80", "value": "2 of 6"}]}, {"smiles": "CCOc1cc2c(cc1C(C)(C)c1ccc(OC)cc1)OCO2", "values": [{"measurement": "T/C", "setting": "[2]", "value": "125 % of control"}, {"measurement": "T/C", "setting": "dose: 480.0 mg/kg/injection, schedule: Q01DX005 (ip), vehicle: saline with Tween-80", "value": "135 % of control"}]}, {"smiles": "c1ccc2c(c1)C1CCC2[n+]2ccccc21", "note": "(stereo not given)", "values": [{"measurement": "survivor count", "setting": "[4]", "value": "0 of 5"}, {"measurement": "survivor count", "setting": "[5]", "value": "0 of 5"}, {"measurement": "survivor count", "setting": "[6]", "value": "0 of 5"}]}, {"smiles": "COc1cccc2c1C(=O)c1c(O)c3c(c(O)c1C2=O)C[C@@](O)(C(C)=O)[C@@H](OC)[C@@H]3OC1CC(N)C(O)C(C)O1", "note": "(stereo not given in full)", "values": [{"measurement": "T/C", "setting": "dose: 9.6 mg/kg/injection, schedule: Q04DX003 (ip), vehicle: water", "value": "138 % of control"}, {"measurement": "T/C", "setting": "dose: 10.0 mg/kg/injection, schedule: Q04DX003 (ip), vehicle: water", "value": "133 % of control"}, {"measurement": "T/C", "setting": "dose: 20.0 mg/kg/injection, schedule: Q04DX003 (ip), vehicle: water", "value": "133 % of control"}, {"measurement": "T/C", "setting": "dose: 40.0 mg/kg/injection, schedule: Q04DX003 (ip), vehicle: water", "value": "149 % of control"}]}]}
